The source of these data is publication PMC7862700.

Only a part is listed here, and it is no random draw. For part of these data: At the low end of the ranking the order means little. Some of the results follow. For part of these data: Construct or isoform of the protein are uncertain.

Assay [1] concerns the target T1, GABPA (UniProt Q06546).
T1 sequence: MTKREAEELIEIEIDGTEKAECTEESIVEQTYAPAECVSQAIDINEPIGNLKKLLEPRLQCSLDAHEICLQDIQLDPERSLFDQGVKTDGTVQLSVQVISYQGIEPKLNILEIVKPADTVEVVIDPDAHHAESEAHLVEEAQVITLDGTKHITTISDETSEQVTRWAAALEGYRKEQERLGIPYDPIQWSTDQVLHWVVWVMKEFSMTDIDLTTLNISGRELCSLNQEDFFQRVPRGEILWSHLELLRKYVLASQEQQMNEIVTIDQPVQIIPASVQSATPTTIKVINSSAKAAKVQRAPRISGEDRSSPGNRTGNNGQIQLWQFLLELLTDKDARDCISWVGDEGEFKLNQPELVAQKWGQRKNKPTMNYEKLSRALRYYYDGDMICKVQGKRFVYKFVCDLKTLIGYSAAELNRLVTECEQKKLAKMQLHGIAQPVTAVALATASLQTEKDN
Put plainly: DAPPL (digital affinity profiling via proximity ligation, sequencing). The settings on record: 10 mM Tris-HCl pH 7.5, 50 mM NaCl, 1 mM DTT, 4% glycerol, room temperature, 30 min; GST-TFs on glutathione beads, 16-mer random dsDNA library, 0.1% …; high values mean tight binding; double strand, one strand shown; scale: fold enrichment (6-mer frequency, TF over GST control).

Assay [2] concerns the target T2, ETS1 (UniProt P14921).
T2 sequence: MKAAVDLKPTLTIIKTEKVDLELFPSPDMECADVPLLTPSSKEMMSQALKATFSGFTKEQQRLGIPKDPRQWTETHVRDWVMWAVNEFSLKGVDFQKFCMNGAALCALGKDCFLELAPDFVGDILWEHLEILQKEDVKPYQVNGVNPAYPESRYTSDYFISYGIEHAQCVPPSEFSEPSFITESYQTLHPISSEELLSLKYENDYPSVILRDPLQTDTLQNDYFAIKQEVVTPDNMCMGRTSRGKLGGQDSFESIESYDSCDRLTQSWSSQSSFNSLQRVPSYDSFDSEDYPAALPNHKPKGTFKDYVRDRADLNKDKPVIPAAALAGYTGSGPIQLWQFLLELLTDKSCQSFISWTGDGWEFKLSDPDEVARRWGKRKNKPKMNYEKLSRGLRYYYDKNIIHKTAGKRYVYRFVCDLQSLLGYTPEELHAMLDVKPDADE
Described as above. To be noted: 10 mM Tris-HCl pH 7.5, 50 mM NaCl, 1 mM DTT, 4% glycerol, room temperature, 30 min; GST-TFs on glutathione beads, 16-mer random dsDNA library, 0.1% …; high values mean tight binding; double strand, one strand shown; scale: fold enrichment (6-mer frequency, TF over GST control).

Take TGTTAC: the binding signal in assay [1] turned out to be 1.39; in assay [2], 1.46.
For AGTACT, the binding signal is 1.19 in assay [1] and 1.12 in assay [2].
As to CTGAAG, the binding signal was determined as 1.11 in assay [1] and 0.962 in assay [2].
The corresponding values for CTTAAC are 1.28 and 1.14.
The like results for CACCAC were, in that order, 1.23 and 1.1.
Turning to CAAACA, the binding signal in assay [1] and in assay [2] was 1.18 throughout.
For TATGCA, the binding signal in assay [1] was 1.24; in assay [2], 1.27.
CGCCAC: the binding signal in assay [1] and in assay [2] was 1.04 in each case.
In the case of TAGCGA, the binding signal turned out to be 1.18 in assay [1] and 0.995 in assay [2].
The corresponding values for CGCCCC are 1.11 and 1.12.
The like results for GTATTG were, in that order, 1.04 and 1.1.
For the sequence AGGATG, the binding signal was determined as 0.938 in assay [1] and 1.07 in assay [2].
With CACGGA, the binding signal in assay [1] worked out at 0.996; in assay [2], 1.08.
With ATTGTC, the values for the binding signal in assay [1] and in assay [2] were 1.16 and 1.14, respectively.
For TGTTGT, the binding signal was 0.991 in assay [1] and 1.16 in assay [2].
The corresponding values for ACTAGG are 1.09 and 1.
The like results for ACTGAA were, in that order, 1.24 and 1.24.
The like results for GATTCA were, in that order, 1.17 and 1.11.
GGTTCT: the binding signal amounted to 1.02 in assay [1] and 0.979 in assay [2].
The like results for CCCAAA were, in that order, 1.17 and 1.16.
The like results for GTGCTA were, in that order, 1.04 and 1.04.
The corresponding values for TAGCTC are 1.2 and 1.16.
GTGCAT: the binding signal was found to be 1.1 in assay [1] and 1.04 in assay [2].
The like results for AAGCAT were, in that order, 1.14 and 1.06.
As to GATCTA, the binding signal is 0.994 in assay [1] and 1.06 in assay [2].
The like results for TGTCTT were, in that order, 1.38 and 1.32.
The like results for CGGATT were, in that order, 0.96 and 0.883.
As to TGCTTG, the binding signal in assay [1] was 1.11; in assay [2], 1.25.
Turning to TTACTA, the binding signal is 1.36 in assay [1] and 1.28 in assay [2].
The corresponding values for ACCCAC are 1.35 and 1.23.
TAGATC: the binding signal came out at 0.979 in assay [1] and 1.14 in assay [2].
The corresponding values for GGCATT are 1.04 and 1.13.
The corresponding values for GGATCT are 1.02 and 0.97.
The like results for ATGGTC were, in that order, 1.65 and 1.57.
For the sequence GAAAAT, the values for the binding signal in assay [1] and in assay [2] were 1.16 and 1.15, respectively.
Turning to CGAAAT, the binding signal in assay [1] amounted to 0.98; in assay [2] it was 1.12.
For the sequence CTTCGA, the binding signal in assay [1] is 1.25; in assay [2] it was 1.36.
With TTCACA, the binding signal in assay [1] was determined as 1.23; in assay [2], 1.22.
The like results for TTTGCA were, in that order, 1.34 and 1.29.
As to ACCCGG, the values for the binding signal in assay [1] and in assay [2] were 1.62 and 1.73, respectively.
Turning to TACAGA, the binding signal in assay [1] is 1.25; in assay [2] it was 1.1.
The like results for ACACCG were, in that order, 0.996 and 0.969.
Regarding GCTTCC, the binding signal worked out at 3.27 in assay [1] and 3.56 in assay [2].
As for CTGTAT, the binding signal in assay [1] was 1.31; in assay [2], 1.36.
The corresponding values for TGGATC are 0.955 and 0.953.
Consider CCCATA, for which the results for the binding signal in assay [1] and in assay [2] were 1.33 and 1.3, respectively.
Take CTGCAG: the binding signal in assay [1] was determined as 1.16; in assay [2] it was 1.03.
Take CGAATT: the values for the binding signal in assay [1] and in assay [2] were 1.27 and 1.23, respectively.
With GCCACT, the figures for the binding signal in assay [1] and in assay [2] were 1.16 and 1.21, respectively.
Take CGCGAA: the figures for the binding signal in assay [1] and in assay [2] were 1.01 and 1.07, respectively.
The like results for TCTGGC were, in that order, 1.29 and 1.23.
For the sequence CGCTGC, the binding signal in assay [1] stood at 1.25; in assay [2], 1.18.
The corresponding values for TCACCC are 1.21 and 1.14.
The like results for TGTACA were, in that order, 1.1 and 1.26.
Consider CCGCGC, for which the binding signal in assay [1] turned out to be 0.958; in assay [2], 1.2.
The corresponding values for GCATTT are 1.36 and 1.3.
The like results for TTTTAG were, in that order, 1.19 and 1.22.
